PubChem BioAssay AID504786 | Drosophila RNAi Screening Center | 2011

Test: 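Fly genes required for HIF-dependent transcription when hypoxia is mimicked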 (primary screen)
System: Drosophila S2 cells with a stable HIF luciferase reporter
Knock-down reagent: long dsRNA against Drosophila genes, about 0.2 µg dsRNA per well of a 384-well plate
Duration: three days of knock-down, then 20 h of DFO before reading
Treatment: desferrioxamine (DFO) at 100 µM, an iron chelator that mimics hypoxia, for 20 h
Read-out: 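HIF reporter luminescence in cells given 100 µM DFO for 20 h, using the mouse ldh-a hypoxia-response element, scored as per-plate z-scores; higher means greater loss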
Direction: z-score: higher = stronger loss of HIF reporter signal
The screen tested about 21,000 reagents; shown is an unselected part of those that have a named target and a result. 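Primary screen; positive scores mean lost reporter signal, so the sign may be inverted from the usual convention.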 Not all columns of the deposit are shown. No sequences are given here.

| target gene | DRSC id | z-score, replicate 1 | z-score, replicate 2 | z-score, replicate 3 |
| --- | --- | --- | --- | --- |
| CG3544 | DRSC00613 | -0.3 | -0.4 | – |
| dnr1 (defense repressor 1) | DRSC03948 | -0.1 | 0.5 | – |
| dnr1 (defense repressor 1) | DRSC04122 | -0.3 | -0.3 | – |
| CG14830 | DRSC08876 | 0.2 | 0.2 | – |
| CG14830 | DRSC10200 | 0 | -0.6 | – |
| chb (chromosome bows) | DRSC11469 | 0.3 | 0 | – |
| CHMP2B (Charged multivesicular body protein 2b) | DRSC10436 | -0.2 | -0.4 | – |
| dpn (deadpan) | DRSC07605 | -0.2 | -0.6 | – |
| AdamTS-A (ADAM metallopeptidase with thrombospondin type 1 motif A) | DRSC14992 | -0.3 | -0.1 | – |
| AdamTS-A (ADAM metallopeptidase with thrombospondin type 1 motif A) | DRSC15966 | -0.3 | -0.3 | – |
| rtp (retinophilin) | DRSC12132 | -0.4 | -0.6 | – |

Individual results from above:
Entry of CG14830 [DRSC08876] in “z-score, replicate 2”: 0.2
Value of dpn (deadpan) [DRSC07605] under “z-score, replicate 2”: -0.6
Entry of rtp (retinophilin) [DRSC12132] under “z-score, replicate 2”: -0.6
Under “z-score, replicate 2”, dnr1 (defense repressor 1) [DRSC04122] is entered as -0.3

The listing continues.
| target gene | DRSC id | z-score, replicate 1 | z-score, replicate 2 | z-score, replicate 3 |
| --- | --- | --- | --- | --- |
| CG17078 | DRSC00484 | -0.2 | -0.2 | – |
| Fkbp59 (FK506-binding protein 59kD) | DRSC03323 | -0.1 | -0.4 | – |
| Cyp12c1 (Cytochrome P450 12c1) | DRSC11125 | -0.3 | 0 | – |
| CG5676 | DRSC02875 | -0.2 | -0.2 | – |
| Vsx1 (Visual system homeobox 1) | DRSC18349 | -0.3 | -0.7 | 1.7 |
| Vsx1 (Visual system homeobox 1) | DRSC18350 | -0.2 | 1 | – |
| sn (singed) | DRSC18834 | -0.3 | -0.5 | – |
| Arfrp1 (ADP-ribosylation factor related protein 1) | DRSC18417 | -0.4 | -0.6 | – |
| Sting | DRSC06615 | 0 | -0.1 | – |
| CG31140 | DRSC13649 | -0.3 | -0.2 | – |
| CG31140 | DRSC14603 | -0.3 | -0.2 | – |
| CG31140 | DRSC15904 | -0.2 | -0.2 | – |
| vari (varicose) | DRSC03202 | -0.2 | -0.1 | – |
| wun (wunen) | DRSC07719 | -0.4 | -0.6 | – |
| CG15117 | DRSC06539 | -0.1 | -0.2 | – |
| Trissin | DRSC14994 | -0.2 | 0 | – |
| Rrp46 | DRSC15537 | -0.2 | -0.4 | – |
| WDR79 (WD repeat domain 79) | DRSC03159 | -0.2 | -0.6 | – |
| Ir75a (Ionotropic receptor 75a) | DRSC10188 | -0.2 | -0.2 | – |
| Ugt35D1 (UDP-glycosyltransferase family 35 member D1) | DRSC15107 | -0.2 | 0.2 | – |
| CG13364 | DRSC17898 | -0.4 | -0.4 | – |
| CG13364 | DRSC21263 | 0.1 | 0.1 | – |
| CG14245 | DRSC14740 | -0.5 | 0.5 | – |
